Data: PubChem BioAssay AID248 (DTP/NCI, 2004)
The list is a part of this screen's results and no random one: it gathers tests that were run many times, whatever their T/C, doses with no T/C, and many T/C values between a quarter and a half above the control. Other doses and runs of a compound stand elsewhere. T/C: endpoint of the treated group in % of that of the vehicle group. Some doses have a count of surviving animals in place of a T/C: the source holds a T/C of zero for them, seemingly a mark for toxic or unscored doses. Some survivor counts are full or nearly so, which does not show that the dose was tolerated: the source hardly ever lists a survival T/C far under the control, and the zero likely stands for such cases as well. Counts of survivors are from the toxicity check (mostly the fifth day) where no day follows; animals may have died later. Schedule codes are those of the source, taken here to give the interval after Q, in days (D) or hours (H), and the number of doses after X. Some entries were tested several times; their values stand side by side, smallest first. Some schedule codes hold Z or #, which are not explained here. For survival time, this PubChem deposit counts one and a half times the control or more as active, and values a quarter to a half above the control carry no call in these data; other NCI protocols may use other cut-offs.

System: L1210 leukemia ip in BDF1 mice, survival T/C
Assay: NCI In Vivo Anticancer Drug Screen. Data for tumor model L1210 Leukemia (intraperitoneal) in B6D2F1 (BDF1) mice
Conditions: T/C endpoint: mean survival time, higher T/C = longer survival
[1] = dose: 400.0 mg/kg/injection, schedule: Q01DX001 (ip), vehicle: saline
[2] = dose: 200.0 mg/kg/injection, schedule: Q01DX001 (ip), vehicle: Klucel (hydroxypropylcellulose) (HPC)
[3] = dose: 400.0 mg/kg/injection, schedule: Q01DX001 (ip), vehicle: Klucel (hydroxypropylcellulose) (HPC)
[4] = dose: 200.0 mg/kg/injection, schedule: Q01DX001 (ip), vehicle: carboxymethylcellulose (CMC)
[5] = dose: 200.0 mg/kg/injection, schedule: Q01DX009 (ip), vehicle: saline

Structure (SMILES): CN(C)C(C#N)C(=O)c1ccccc1 (centres undefined)
- survivor count (dose: 200.0 mg/kg/injection, schedule: Q01DX001 (ip), vehicle: saline): 1 of 6 and 6 of 6
- survivor count [1]: 3 of 6

Structure (SMILES): CN(C)N=Nc1ccc2[nH]ncc2c1
- T/C (dose: 12.5 mg/kg/injection, schedule: Q01DX009 (ip), vehicle: Klucel (hydroxypropylcellulose) (HPC)): 130 % of control
- T/C (dose: 22.0 mg/kg/injection, schedule: Q01DX009 (ip), vehicle: Klucel (hydroxypropylcellulose) (HPC)): 128 % of control
- T/C (dose: 25.0 mg/kg/injection, schedule: Q01DX009 (ip), vehicle: Klucel (hydroxypropylcellulose) (HPC)): 137 % of control
- T/C (dose: 33.0 mg/kg/injection, schedule: Q01DX009 (ip), vehicle: Klucel (hydroxypropylcellulose) (HPC)): 149 % of control
- T/C (dose: 50.0 mg/kg/injection, schedule: Q01DX009 (ip), vehicle: Klucel (hydroxypropylcellulose) (HPC)): 126 and 136 % of control
- survivor count (dose: 75.0 mg/kg/injection, schedule: Q01DX009 (ip), vehicle: Klucel (hydroxypropylcellulose) (HPC)): 6 of 6
- survivor count (dose: 100.0 mg/kg/injection, schedule: Q01DX009 (ip), vehicle: Klucel (hydroxypropylcellulose) (HPC)): 1 of 6
- survivor count [2]: 0 of 6
- survivor count [3]: 0 of 6

Structure (SMILES): CC(C)CCSc1ccccc1
- survivor count (dose: 300.0 mg/kg/injection, schedule: Q01DX001 (ip), vehicle: acetone): 1 of 6

Structure (SMILES): NC1(C(=O)O)CSSC1
- survivor count (dose: 100.0 mg/kg/injection, schedule: Q01DX005 (ip), vehicle: saline): 2 of 4
- survivor count (dose: 200.0 mg/kg/injection, schedule: Q01DX005 (ip), vehicle: saline): 0 of 3
- survivor count [1]: 1 of 4
- survivor count (dose: 400.0 mg/kg/injection, schedule: Q01DX005 (ip), vehicle: saline): 0 of 3

Structure (SMILES): CC1=C2CC(C(C)(C)O)CCC2(C)CC/C1=N\NC(N)=S (centres undefined)
- survivor count (dose: 200.0 mg/kg/injection, schedule: Q01DX009 (ip), vehicle: saline with Tween-80): 6 of 6

Structure (SMILES): O=C1C=C(O)C2=C(CCCC2)C1=O
- survivor count (dose: 200.0 mg/kg/injection, schedule: Q01DX001 (ip), vehicle: water): 1 of 6
- survivor count (dose: 400.0 mg/kg/injection, schedule: Q01DX001 (ip), vehicle: water): 0 of 6

Structure (SMILES): O=C(Nc1ccc(C2=NCCS2)cc1)c1ccc(C(=O)Nc2ccc(C3=NCCS3)cc2)cc1
- survivor count (dose: 250.0 mg/kg/injection, schedule: Q01DX Z (ip), vehicle: water): 2 of 6
- survivor count (dose: 500.0 mg/kg/injection, schedule: Q01DX Z (ip), vehicle: water): 2 of 6

Structure (SMILES): C=CCN1C(=O)C(c2ccccc2)C2(CCN(C)CC2)C1=O (centres undefined)
- survivor count [2]: 1 of 6
- survivor count [3]: 0 of 6

Structure (SMILES): NC(=O)C1C(=O)OC2(CC2)C1c1ccccc1 (centres undefined)
- survivor count [1]: 3 of 4

Structure (SMILES): [NH-]C(CC(N)=O)C(=O)O.[NH-]C(CC(N)=O)C(=O)O.[Pd+2] (centres undefined)
- survivor count (dose: 400.0 mg/kg/injection, schedule: Q04DX002 (ip), vehicle: saline with Tween-80): 1 of 3

Structure (SMILES): O=C(Nc1cccc(Cl)c1)OCC#CCCl
- survivor count (dose: 100.0 mg/kg/injection, schedule: Q01DX001 (ip), vehicle: saline sonified): 6 of 6
- survivor count (dose: 200.0 mg/kg/injection, schedule: Q01DX001 (ip), vehicle: saline sonified): 6 of 6

Structure (SMILES): COc1ccc(O)c(C2(O)OC(=O)c3c(OC)cccc32)c1 (centres undefined)
- survivor count (dose: 400.0 mg/kg/injection, schedule: Q01DX009 (ip), vehicle: carboxymethylcellulose (CMC)): 3 of 3 and 6 of 6

Structure (SMILES): CCOP(=S)(N1CCNCC1)N1CCNCC1
- survivor count (dose: 300.0 mg/kg/injection, schedule: Q01DX009 (ip), vehicle: Klucel (hydroxypropylcellulose) (HPC)): 0 of 6

Structure (SMILES): CS(=O)(=O)OCCN(CCOS(C)(=O)=O)c1ccc(C=Nc2ccc(-c3csc(-c4ccc(Br)cc4)n3)cc2)c(Cl)c1
- T/C (dose: 400.0 mg/kg/injection, schedule: Q04DX003 (ip), vehicle: Klucel (hydroxypropylcellulose) (HPC)): 127 % of control

Structure (SMILES): [N-]=[N+]=C1N=CN=C1c1ncn[nH]1
- T/C (dose: 12.0 mg/kg/injection, schedule: Q01DX015 (ip), vehicle: carboxymethylcellulose (CMC)): 128 % of control
- T/C (dose: 12.0 mg/kg/injection, schedule: Q01DX Z (ip), vehicle: carboxymethylcellulose (CMC)): 130 % of control
- T/C (dose: 17.0 mg/kg/injection, schedule: Q01DX015 (ip), vehicle: carboxymethylcellulose (CMC)): 129 % of control
- T/C (dose: 18.0 mg/kg/injection, schedule: Q01DX Z (ip), vehicle: carboxymethylcellulose (CMC)): 130 % of control
- T/C (dose: 25.0 mg/kg/injection, schedule: Q01DX015 (ip), vehicle: carboxymethylcellulose (CMC)): 132 % of control
- T/C (dose: 25.0 mg/kg/injection, schedule: Q01DX Z (ip), vehicle: carboxymethylcellulose (CMC)): 133 % of control
- T/C (dose: 37.0 mg/kg/injection, schedule: Q01DX015 (ip), vehicle: carboxymethylcellulose (CMC)): 143 and 147 % of control
- T/C (dose: 37.0 mg/kg/injection, schedule: Q01DX Z (ip), vehicle: carboxymethylcellulose (CMC)): 138 % of control
- survivor count (dose: 80.0 mg/kg/injection, schedule: Q01DX015 (ip), vehicle: carboxymethylcellulose (CMC)): 1 of 6
- survivor count (dose: 100.0 mg/kg/injection, schedule: Q01DX001 (ip), vehicle: carboxymethylcellulose (CMC)): 3 of 6
- survivor count (dose: 120.0 mg/kg/injection, schedule: Q01DX015 (ip), vehicle: carboxymethylcellulose (CMC)): 0 of 6
- survivor count [4]: 0 of 6
- survivor count (dose: 400.0 mg/kg/injection, schedule: Q01DX001 (ip), vehicle: carboxymethylcellulose (CMC)): 0 of 6

Structure (SMILES): O=C(O)CNCc1cccc(Cl)c1
- survivor count [5]: 6 of 6

Structure (SMILES): CCOC(=O)NC(NC(=O)OCC)c1ccc(Cl)cc1Cl
- survivor count [4]: 4 of 4

Structure (SMILES): Nc1nc(N)c2nc(CNc3ccc(C(=O)NC(CCCCC(=O)O)C(=O)O)cc3)cnc2n1 (centres undefined)
- T/C (dose: 9.0 mg/kg/injection, schedule: Q01DX009 (ip), vehicle: sodium bicarbonate): 134 % of control
- T/C (dose: 13.0 mg/kg/injection, schedule: Q01DX009 (ip), vehicle: sodium bicarbonate): 134 % of control
- T/C (dose: 20.0 mg/kg/injection, schedule: Q01DX009 (ip), vehicle: sodium bicarbonate): 141 % of control
- T/C (dose: 30.0 mg/kg/injection, schedule: Q01DX009 (ip), vehicle: sodium bicarbonate): 141 % of control
- T/C (dose: 40.0 mg/kg/injection, schedule: Q01DX009 (ip), vehicle: sodium bicarbonate): 130 % of control
- survivor count (dose: 80.0 mg/kg/injection, schedule: Q01DX009 (ip), vehicle: sodium bicarbonate): 2 of 3

Structure (SMILES): CCCCCCCC(=O)Nc1cc2c3c(c1)CCCN3CCC2
- survivor count (dose: 400.0 mg/kg/injection, schedule: Q04DX003 (ip), vehicle: saline with Tween-80): 4 of 6

Structure (SMILES): Cc1nc(N)nc2c1CCC(O)S2 (centres undefined)
- survivor count (dose: 100.0 mg/kg/injection, schedule: Q01DX001 (ip), vehicle: Klucel (hydroxypropylcellulose) (HPC)): 3 of 3
- survivor count [3]: 3 of 3

Structure (SMILES): C=CC(=O)Oc1ccc([N+](=O)[O-])cc1
- survivor count (dose: 100.0 mg/kg/injection, schedule: Q01DX009 (ip), vehicle: saline): 6 of 6
- survivor count (dose: 100.0 mg/kg/injection, schedule: Q04DX003 (ip), vehicle: saline): 2 of 6
- survivor count [5]: 0 of 6
- survivor count (dose: 400.0 mg/kg/injection, schedule: Q01DX009 (ip), vehicle: saline): 0 of 6

Structure (SMILES): CCCC(C)(C)SSC(C)(C)CCC
- survivor count (dose: 400.0 mg/kg/injection, schedule: Q01DX009 (ip), vehicle: saline with Tween-80): 6 of 6
